# The other results are listed elsewhere or left out. Further columns of the screen follow, without active or inactive calls. Most of these compounds were active or inconclusive in the main read-out, so they are no random draw. Words in brackets tell the shape of the fitted curve; partial curves, single points and poor fits give uncertain potencies.
# Assay: qHTS Assay for Lipid Storage Modulators in Drosophila S3 Cells;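 as to cell number change: cells counted by Cell Tracker Red CMTPX staining in the red channel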
# Settings: BODIPY lipid droplet fluorescence, 18-24 h; for cell number change: measured here: cell count max response, cells fed with added oleic acid
# Outline: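 Drosophila S3 cells loaded with oleic acid (400 uM, as added) and compounds at several concentrations; lipid droplets imaged by 488-nm laser-scanning cytometry, 500–530 nm intensity and object ratio to cell channel. Percent activity normalized to 20 uM Triacsin C.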
# [1] = measured here: lipid fluorescence (Fed channel) AC50, cells fed with added oleic acid
# [2] = measured here: cell number channel AC50, cells fed with added oleic acid
Structure (SMILES),cell number change [%],AC50 [1],AC50 [2]
CC1CCc2c(sc(NC(=O)CSc3nnc(-c4ccccc4)o3)c2C#N)C1 (stereo unspecified),16,"0.116 µM [rising, full curve]",
Cn1c(C(=O)NCCN2CCc3ccccc3C2)cc2c(=O)n(C)c3ccccc3c21,6.92,"2.31 µM [rising, single point]",
CCC(=O)Nc1nc(C)c(-c2csc(Nc3cccc(O)c3)n2)s1,,"29.1 µM [falling, single point]",
COc1cccc(Nc2nc3ccccc3c(=O)[nH]2)c1,11.3,"0.116 µM [rising, full curve, poor fit]","0.82 µM [rising, full curve, poor fit]"
COC(=O)CSc1nc2sc3c(c2c(=O)n1-c1ccccc1)CCN(C)C3,-13.9,,
NC(=O)C1CCN(C(=O)C2CCN(S(=O)(=O)c3ccccc3)CC2)CC1,-15.5,"0.291 µM [falling, full curve]",
COc1ccccc1NC(=O)CCN1C(=O)C2C3CCC(C3)C2C1=O (stereo unspecified),-30.5,"29.1 µM [falling, single point]","16.4 µM [falling, single point]"
COCCn1c(=N)c(S(=O)(=O)c2ccc(F)cc2)cc2c(=O)n3ccccc3nc21,8.06,"16.4 µM [falling, single point]",
O=C(NC(Nc1ncc(S(=O)(=O)c2ccc([N+](=O)[O-])cc2)s1)(C(F)(F)F)C(F)(F)F)c1ccc(Cl)cc1,-49.2,"29.1 µM [falling, single point]","16.4 µM [falling, partial curve]"
Cc1cccc(-n2cc(CN3CCN(Cc4nccn4C)CC3)c(-c3cccc(F)c3)n2)c1,-10,"20.6 µM [falling, single point]",
O=S(=O)(NC1CCCCC1)c1ccc(F)c2ccccc12,-52.5,,"29.1 µM [falling, single point]"
Cc1ccc(NC(=O)CSC2=C(C#N)C(c3ccco3)C3=C(CCCC3=O)N2)cc1 (stereo unspecified),,"1.64 µM [falling, full curve, poor fit]",
CCOc1ccc(Oc2c(/C=N/NC(=O)C3CC3)c(C)nn2-c2ccccc2)cc1,-25.2,"25.9 µM [falling, partial curve, poor fit]",
COc1ccc(C(CNC(=O)c2ccc(OCc3c(C)noc3C)cc2)N2CCCC2)cc1 (stereo unspecified),-2.07,"1.03 µM [rising, full curve]",
O=C(c1ccc(N2CCOCC2)c([N+](=O)[O-])c1)N1CCN(S(=O)(=O)c2cccs2)CC1,15.7,"29.1 µM [rising, single point]",
COc1ccc(N(C(=O)Cn2nnc3ccccc32)C(C(=O)NCc2ccco2)c2cccnc2)cc1 (stereo unspecified),-40,"29.1 µM [falling, single point]","23.1 µM [falling, single point]"
O=C(/C=C/c1ccccc1Cl)Nc1cccc(S(=O)(=O)NC2=NCCCCC2)c1,8.6,"2.91 µM [falling, full curve]",
CC1CC(C)CN(S(=O)(=O)N2CCCC(C(=O)NCc3ccccc3Cl)C2)C1 (stereo unspecified),25.7,"20.6 µM [rising, single point]",
Cc1csc2ncc(C(=O)NCCC(c3ccccc3)c3ccccc3)c(=O)n12,52.5,"1.16 µM [rising, full curve]","0.92 µM [rising, full curve]"
Cc1cc(F)ccc1S(=O)(=O)Nc1ccccc1C(=O)NCc1ccccn1,86.4,,

Structure (SMILES),cell number change [%],AC50 [1],AC50 [2]
CCCCN1C(=O)C(=O)N(CC(=O)N2N=C3/C(=C/c4ccco4)CCCC3C2c2ccco2)C1=O (stereo unspecified),,,"0.0731 µM [falling, full curve, poor fit]"
O=C(N/N=C/c1cccc(Br)c1)c1ccc(N2CCCC2=O)cc1,26.7,,
O=C(CSCc1ccc(Cl)cc1)Nc1ccc2c(c1)OCO2,19.5,"2.59 µM [rising, full curve]",
CC(=O)c1ccccc1OCC(O)CN1CCN(C(c2ccccc2)c2ccccc2)CC1 (stereo unspecified),-59.7,,"16.4 µM [falling, single point]"
Cc1ccc2nc(NC(=O)COC(=O)CSc3nc(C)cc(C)n3)sc2c1,46.6,"23.1 µM [rising, single point]",
O=C(Nc1ccc(C(=O)NCc2ccc(F)cc2)cc1)C1=CSCCO1,42.7,,"20.6 µM [rising, single point]"
CCc1nnc(NC(=O)c2cc(-c3ccccn3)nc3ccccc23)s1,,"2.06 µM [rising, partial curve]",
CCNc1nnc(SCC(=O)NC2CCCCCC2)s1,73.5,,"20.6 µM [rising, single point]"
Oc1ccc(/C=N/NC(=S)NC2CC3CCC2C3)cc1 (stereo unspecified),-7.4,"0.0058 µM [falling, full curve, poor fit]","0.00461 µM [falling, full curve, poor fit]"
CC[C@@]1(c2ccccc2)C(=O)N(C(=O)OC)N1C(=O)OC,-6.59,"6.51 µM [rising, single point]",
Oc1ccc(-c2nc3ccccc3s2)c(O)c1,17.4,,
C/C(=N\NC(=S)Nc1cccc(C)c1)c1cccc(N)c1,-0.963,"0.58 µM [rising, full curve, poor fit]",
O=C1c2cccc([N+](=O)[O-])c2C(=O)N1C1CCCCC1,-22.8,,
O=C(c1cnc2sccn2c1=O)N1CCc2ccccc2C1,14.5,,
COc1ccc(CNC(=O)COC(=O)CC2CC3CCC2C3)cc1OC (stereo unspecified),11.5,"29.1 µM [rising, single point]","0.116 µM [rising, full curve, poor fit]"
Cc1ccc(NC(=O)CCNS(=O)(=O)c2ccc3[nH]c(=O)oc3c2)cc1,-10,"6.51 µM [falling, single point]",
c1ccc(-c2nnc(OCc3cccnc3)c3ccccc23)cc1,-33.4,"35.5 µM [falling, partial curve, poor fit]","25.1 µM [falling, partial curve, poor fit]"
CCc1cccc(C)c1NC(=S)N(Cc1cccnc1)Cc1ccco1,6.26,"6.51 µM [rising, single point]","6.51 µM [rising, single point]"
CN1CCN(c2ccc(NC(=O)CSc3nnnn3-c3ccccc3Cl)cc2)CC1,-11.7,,
COc1ccccc1CCNC(=O)c1ccc(Br)s1,-7.23,"3.66 µM [rising, single point]",

Structure (SMILES),cell number change [%],AC50 [1],AC50 [2]
N#Cc1ccc(-c2csc(NC3=NCCCCC3)n2)cc1,3.22,"0.82 µM [falling, full curve, poor fit]",
Cc1cc(NS(=O)(=O)c2ccc(NC(=O)COc3ccc(Cl)cc3Cl)cc2)no1,,"6.51 µM [rising, single point]",
Cc1ccccc1NC(=O)COC(=O)c1c[nH]c(=O)[nH]c1=O,3.82,"0.116 µM [rising, partial curve, poor fit]",
CCOC(=O)c1c(NC(=S)Nc2ccccc2)sc2c1CCN(CC)C2,23.6,,
COc1ccc2c(c1)NC(c1ccc(N(C)C)cc1)c1cccn1-2 (stereo unspecified),-7.66,,
Cc1oc(-c2ccccc2F)nc1CS(=O)CC(=O)NCc1cccs1 (stereo unspecified),16.3,,"0.517 µM [rising, full curve, poor fit]"
CC(C)OC(=O)c1cccc(C(=O)Oc2ccccc2)n1,-10.5,"9.2 µM [rising, partial curve]","0.00517 µM [falling, full curve, poor fit]"
CCN1CCN(Cc2c(O)ccc3c2O/C(=C\c2ccccc2)C3=O)CC1,31.6,,
Cc1cccc(C)c1OCc1nnc(SCC(=O)Nc2nccs2)o1,6.71,,
COC(=O)c1cc(NC(=O)c2c(-c3c(Cl)cccc3Cl)noc2C)ccc1N1CCOCC1,,"2.91 µM [rising, single point]",
CCNc1ccc(C(=O)OCC)cc1NC(=O)c1cccc(N(C)C)c1,-35,"20.6 µM [falling, partial curve]","13 µM [falling, partial curve]"
CCCC(=O)OCC(=O)Nc1ccc(N=Nc2ccccc2)cc1,5.41,,
CC(=O)Nc1ccc(C(=O)N2CC(=O)NC(=O)C2)cc1,-28.9,,"0.13 µM [falling, full curve, poor fit]"
CCOC(=O)c1c(NC(=O)Cc2ccccc2)sc2c1CC(C)(C)NC2(C)C,0.898,"29.1 µM [rising, single point]",
COc1ccc(C2=NOC(Cn3nc(C(=O)NCc4ccco4)cc3-c3ccccc3)C2)cc1 (stereo unspecified),19.2,"0.00461 µM [falling, full curve, poor fit]","0.00517 µM [falling, full curve, poor fit]"
COc1ccc(CCCc2nnc(SCC(=O)Nc3nc(C)cs3)n2C)cc1C,-56.6,"7.31 µM [falling, partial curve]","20.6 µM [falling, partial curve]"
COC(=O)c1cccc(NC(=S)N2CCOCC2)c1,-0.615,,
COC(=O)c1ccccc1-c1c2ccc(=N)cc-2oc2cc(N)ccc12,-98.9,"0.411 µM [falling, full curve]","0.517 µM [falling, full curve]"
COc1ccc([N+](=O)[O-])cc1Nc1ncnc2ccccc12,9.78,"0.103 µM [rising, full curve, poor fit]",
CC(=O)Nc1ccc(N=NC2C(=O)N(C(N)=S)N=C2C)cc1 (stereo unspecified),-51.4,"3.26 µM [falling, full curve]","1.84 µM [falling, full curve, poor fit]"

# Taken from the listing (four entries):
Structure (SMILES),cell number change [%],AC50 [1],AC50 [2]
O=C1c2cccc([N+](=O)[O-])c2C(=O)N1C1CCCCC1,-22.8,,
O=C(c1cnc2sccn2c1=O)N1CCc2ccccc2C1,14.5,,
COc1ccc(CNC(=O)COC(=O)CC2CC3CCC2C3)cc1OC (stereo unspecified),11.5,"29.1 µM [rising, single point]","0.116 µM [rising, full curve, poor fit]"
Cc1ccc(NC(=O)CCNS(=O)(=O)c2ccc3[nH]c(=O)oc3c2)cc1,-10,"6.51 µM [falling, single point]",

# Reference: PubChem BioAssay AID2685 (National Center for Advancing Translational Sciences (NCATS), 2010)
